Experimental findings from PubChem BioAssay AID1487 (National Center for Advancing Translational Sciences (NCATS), 2009) are described below.

Some of the results follow. Further columns of the screen follow, without active or inactive calls. Most of these compounds were active or inconclusive in the main read-out, so they are no random draw. Potencies come from curve fits of mixed quality, noted in brackets.

Broadly, the AC50 is the concentration at which the activity in the assay is half-maximal.

The assay can be described thus: qHTS Assay for Modulators of Lamin A Splicing. The note with it: HeLa LMNA splicing GFP/RFP minigene ratio, 48 h. The gist of the method:
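S3 HeLa cells stably expressing lamin A-EGFP splicing minigene plus DsRed2, 600 cells/well, 48 h compound exposure at 37C. Laser-scanning cytometry; analysed as GFP (500-530 nm)/RFP (575-640 nm) total intensity ratio; 0.5% DMSO vehicle.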

Setting [1] is: measured here: GFP splicing reporter channel.
The mark [2] stands for this setting: measured here: RFP viability control channel.

For `COc1ccc(-c2nn(-c3cccc(F)c3)c3c2cnc2cc(OC)c(OC)cc23)cc1`, the AC50 under setting [1] was 5.62 µM [falling, single point]. For `Nc1ccc(S(=O)(=O)Nc2ccnn2-c2ccccc2)cc1`, the half-maximal activity concentration (AC50) is, setting by setting: under setting [1], 0.2 µM [falling, single point]; under setting [2], 7.94 µM [falling, single point]. With `Cc1[nH]n2c(=O)cc(C(C)(C)C)nc2c1-c1ccccc1`, the AC50 under setting [2] was 1 µM [rising, full curve]. On to `COc1ccc(C(=O)N/N=C/c2ccc(OC)c(CSc3ccccn3)c2)cc1`, for which the half-maximal activity concentration (AC50) under setting [2] is 15.8 µM [rising, single point].

Take `COC(=O)C1CCN(S(=O)(=O)c2cc3c4c(c2)CC(=O)N4CCC3)CC1`: the concentration at half-maximal activity (AC50) under setting [2] is 6.31 µM [falling, partial curve, poor fit]. Consider `NS(=O)(=O)c1ccc(NC(=O)CSc2nc3ccccc3n2-c2ccccc2)cc1`, for which the AC50 under setting [2] was 20 µM [rising, partial curve, poor fit]. Consider `COC(=O)c1ccc(-c2ccco2)n1Cc1nc(-c2ccc(OC)c(OC)c2)oc1C`, for which, under setting [2], the AC50 is 22.4 µM [rising, single point]. The same measure, in the same setting: under `CC(C)(C)N(Cc1ccccc1)C(=O)CSc1nnc(CNc2ccc(F)cc2)o1` stands 15.8 µM [rising, single point]. For `O=S(=O)(c1ccc(N2CCCC2)cc1)C(F)(F)F`, the concentration at half-maximal activity (AC50) under setting [2] was 35.5 µM [rising, single point].

In the case of `Cc1ccc(CN2C(=O)c3ccccc3Sc3ccc(C(=O)OCc4ccco4)cc32)cc1`, the AC50 under setting [2] is 0.447 µM [rising, full curve]. Turning to `Cc1nc2c(ccc3nc(NC(=O)Cc4cccc5ccccc45)sc32)s1`, the half-maximal activity concentration (AC50) by setting is: under setting [1], 20 µM [rising, single point]; under setting [2], 25.1 µM [rising, partial curve]. For `Cc1cc(C(=O)Nc2c(C)nc3ccccn3c2=O)ccc1[N+](=O)[O-]`, the half-maximal activity concentration (AC50) under setting [2] is 0.562 µM [falling, partial curve, poor fit].

For the compound `O=C(OC1Cc2c(O)cc(O)cc2OC1c1cc(O)c(O)c(O)c1-c1c(C2Oc3cc(O)cc(O)c3CC2O)cc(O)c(O)c1O)c1cc(O)c(O)c(O)c1` (centres undefined), under setting [2], the concentration at half-maximal activity (AC50) is 14.1 µM [rising, single point]. On the same count and under the same terms, the same measure for `COc1ccccc1NC(=O)Cn1nnc(-c2ccccc2NC(=O)c2ccco2)n1`: 5.62 µM [rising, single point]. In the case of `Cc1ccc(SC(CC(=O)c2ccc(C)cc2)C(=O)O)cc1` (centres undefined), the half-maximal activity concentration (AC50) under setting [1] is 15.8 µM [falling, single point]. In the case of `COc1ccc(NC(=O)c2cncc(Br)c2)cc1S(=O)(=O)N1CCCCC1`, the half-maximal activity concentration (AC50) under setting [2] was 35.5 µM [rising, single point]. `CC(=O)c1c(C)n(-c2ccc(N(C)C)cc2)c2ccc(OCC(N)=O)cc12`: the AC50 reads like this: under setting [1], 22.4 µM [rising, single point]; under setting [2], 11.2 µM [rising, partial curve]. `COC(=O)CSc1ccc2nnc(-c3ccc(OC)c(OC)c3)n2n1`: under setting [2], the concentration at half-maximal activity (AC50) was 15.8 µM [rising, partial curve, poor fit]. For the compound `O=C(N/N=C/c1cccs1)C1CC(=O)N(c2ccccc2)C1` (centres undefined), under setting [2], the AC50 was 35.5 µM [falling, single point]. Consider `Cc1sc2ncnc(NCc3ccco3)c2c1C`, for which the AC50 under setting [1] was 5.01 µM [rising, partial curve, poor fit]. Consider `Cc1nnc2sc(-c3ccc(-c4ccc(Cl)c(C(F)(F)F)c4)o3)nn12`, for which the AC50 under setting [2] was 0.0631 µM [rising, full curve, poor fit]. Turning to `Cn1c(SCC(=O)N2CCc3ccccc32)nc2cccnc21`, the AC50 was 14.1 µM [rising, single point] under setting [1] and 22.4 µM [rising, single point] under setting [2]. Take `Nc1ncnc2c1ncn2[C@@H]1O[C@H](COP(=O)(O)O)[C@@H](O)[C@@H]1O`: the AC50 reads like this: under setting [1], 0.00355 µM [falling, full curve]; under setting [2], 0.00398 µM [falling, full curve, poor fit]. `Fc1ccccc1/C=C1\CCCC2=C1NC(=S)NC2c1ccccc1F` (centres undefined): the half-maximal activity concentration (AC50) under setting [1] is 20 µM [falling, single point]. Same read-out and setting: under `Cc1ccccc1CSCC(=O)NCc1ccco1` stands 6.31 µM [falling, single point]. Regarding `N#Cc1cccc(-c2nccc(NCc3cccs3)n2)c1`, the concentration at half-maximal activity (AC50) under setting [2] was 11.2 µM [falling, partial curve, poor fit]. On to `COc1ccc(C)cc1-n1cnc2cc(C(=O)NC3CCCC3)ccc21`, for which the half-maximal activity concentration (AC50) was 7.94 µM [falling, partial curve] under setting [1] and 0.316 µM [falling, full curve, poor fit] under setting [2]. Consider `Clc1cccc(-c2nn3c(Cn4cnc5ccccc54)nnc3s2)c1`, for which the AC50 under setting [1] was 28.2 µM [rising, single point] and the concentration at half-maximal activity (AC50) under setting [2] is 22.4 µM [rising, single point]. For `CCN(CC)c1nc(OCCNC(=O)Nc2ccccc2)nc(N(CC)CC)n1`, the half-maximal activity concentration (AC50) under setting [2] is 20 µM [rising, single point]. In the case of `O=C(Cn1cc2c(n1)CCCC2)NCc1cccnc1`, the concentration at half-maximal activity (AC50) runs as follows: under setting [1], 0.2 µM [falling, full curve]; under setting [2], 0.251 µM [falling, full curve, poor fit]. As to `CCCCn1cnc2cc(NCc3ccncc3)ccc21`, the AC50 under setting [2] was 20 µM [rising, single point]. As for `C=CCNC(=S)Nc1nc2c(cc1C(=O)OCC)CCCC2`, the concentration at half-maximal activity (AC50) by setting is: under setting [1], 7.94 µM [rising, partial curve]; under setting [2], 11.2 µM [rising, partial curve]. Take `O=C(CCCn1c(=S)[nH]c2ccc(Br)cc2c1=O)N1CCN(c2ccccn2)CC1`: the concentration at half-maximal activity (AC50) reads like this: under setting [1], 12.6 µM [falling, single point]; under setting [2], 20 µM [falling, single point]. Turning to `CCOc1ccccc1C(=O)NC1CC2CCCC(C1)N2Cc1nnnn1Cc1ccco1` (centres undefined), the AC50 under setting [2] is 4.47 µM [rising, partial curve]. In the case of `NC(=S)N/N=C/c1ccc(-c2cc(Cl)c(Cl)cc2Cl)o1`, the AC50 was 12.6 µM [falling, partial curve, poor fit] under setting [1] and 11.2 µM [falling, partial curve, poor fit] under setting [2]. For `COc1ccc(C2CC(c3ccc4ccccc4c3)=NN2C(=O)CN2C(=O)CCC2=O)cc1` (centres undefined), the AC50 under setting [1] is 14.1 µM [falling, partial curve, poor fit].

As to `CCc1ccc(OCC(=O)NC(NC(=S)Nc2ccccc2C)C(Cl)(Cl)Cl)cc1` (centres undefined), the AC50 under setting [2] was 7.94 µM [rising, partial curve]. As to `CCN(CC)CCNC(=O)c1sc2ncccc2c1-n1cccc1`, the half-maximal activity concentration (AC50) under setting [1] was 0.00316 µM [falling, full curve, poor fit]. As to `Cc1nc(/C=C/c2ccccc2)[nH]c(=O)c1-c1ccccc1`, under setting [2], the half-maximal activity concentration (AC50) was 3.55 µM [rising, partial curve].

On to `COc1cc2c(cc1OC)C1=C(C#N)CCC(=NC(=O)c3ccc(Cl)cc3)N1CC2`, for which the AC50 runs as follows: under setting [1], 3.98 µM [rising, full curve, poor fit]; under setting [2], 3.16 µM [rising, single point]. As for `CC(=O)Nc1ccc(SCC(=O)Nc2ccccc2-c2ccccc2)cc1`, the AC50 under setting [2] was 15.8 µM [rising, partial curve]. Consider `CC(=O)c1cccc(NC(=O)CN(Cc2ccccc2)S(C)(=O)=O)c1`, for which, under setting [1], the AC50 was 15.8 µM [rising, single point].

Consider `COc1ccc(Oc2nc(-c3ccccn3)ncc2OC)cc1`, for which, under setting [2], the AC50 was 8.91 µM [rising, partial curve]. `O=C(NCCC(c1ccccc1)c1ccccc1)c1cnccn1`: the concentration at half-maximal activity (AC50) under setting [2] is 35.5 µM [rising, single point]. On the same count and under the same terms, the same measure for `O=C(Nc1ccc([N+](=O)[O-])cc1)c1cc(-c2ccccn2)nc2c(Cl)cccc12`: 15.8 µM [falling, single point]. On to `O=C(Nc1nc2ccc(C(=O)N3CCCCC3)cc2s1)C1CCCCC1`, for which the AC50 under setting [1] is 7.08 µM [falling, partial curve, poor fit] and the AC50 under setting [2] was 22.4 µM [falling, partial curve, poor fit]. Regarding `Cc1onc(-c2ccccc2)c1C(=O)Nc1nnc(N2CCCCCC2)s1`, under setting [2], the AC50 is 20 µM [rising, partial curve, poor fit]. On to `CN(C)c1ccc(C(=O)/C=C/c2ccco2)cc1`, for which, under setting [2], the AC50 is 1 µM [rising, partial curve, poor fit]. Take `COc1cccc(CN2CCNC(=O)C2CC(=O)NCc2cn3cccc(C)c3n2)c1OC` (centres undefined): under setting [1], the AC50 is 0.794 µM [rising, single point]. In the case of `COc1ccc(OCC(=O)NNC(=O)c2c(-c3ccccc3Cl)noc2C)cc1`, the AC50 is 0.02 µM [rising, full curve, poor fit] under setting [1] and 0.0316 µM [rising, full curve, poor fit] under setting [2]. Regarding `OCCNc1c2ccccc2nc2ccccc12`, the half-maximal activity concentration (AC50) is 2 µM [falling, partial curve] under setting [1] and 15.8 µM [falling, partial curve, poor fit] under setting [2]. As to `COc1ccc(S(=O)(=O)N(C)c2ccc(OCC(=O)Nc3cc(C)on3)cc2)cc1`, the AC50 is 11.2 µM [rising, single point] under setting [1] and 11.2 µM [rising, single point] under setting [2]. `CCN(CC)C(=O)N1CCN(Cc2ccc3c(c2)OCO3)CC1`: the AC50 under setting [1] was 5.01 µM [falling, single point]. Take `CN(C)S(=O)(=O)c1cc(C(=O)NCCCn2ccc3ccccc32)ccc1Cl`: the half-maximal activity concentration (AC50) under setting [1] is 2.24 µM [rising, partial curve]. With `CCOC(=O)c1ccc(N2C(=O)c3n[nH]c(C)c3C2c2ccc(O)cc2)cc1` (centres undefined), the AC50 under setting [2] is 22.4 µM [rising, single point].

As for `CCOC(=O)c1ccc(NS(=O)(=O)c2ccc3[nH]c4c(c3c2)CCCCC4)cc1`, the AC50 under setting [1] is 15.8 µM [falling, single point] and the AC50 under setting [2] was 22.4 µM [falling, single point]. As for `O=C(NCc1ccco1)C(c1cccs1)N(Cc1ccccc1)C(=O)Cn1nnc2ccccc21` (centres undefined), the concentration at half-maximal activity (AC50) under setting [2] is 5.62 µM [rising, single point].
